# Where two headings read alike, the source gives them in different places. The source gives many values for each of these; only a part stands here.
# System: T. brucei lysate proteins
# Format: binding, Trypanosoma brucei
# Conditions: vs vehicle control
structure (smiles),measurement,setting,value
CCCCCCOc1ccc(Cc2cnc(N)nc2N)cc1 [compound 1],fold change,protein TB11.01.3180 GUANINE NUCLEOTIDE-BINDING PROTEIN BETA SUBUNIT-LIKE PROTEIN,0.95
same,fold change,"protein TB11.01.5860 T-COMPLEX PROTEIN 1, EPSILON SUBUNIT, PUTATIVE",0.83
same,fold change,"protein TB11.01.5910 DYNEIN IN[…] IC70, PUTATIVE",0.98
same,fold change,"protein TB11.01.8740 PROTEIN PHOSPHATASE 4, PUTATIVE",0.87
same,fold change,protein TB11.02.1220 […] SUBUNIT 2,0.81
same,fold change,"protein TB11.02.4360 40S RIBOSOMAL PROTEIN S21, PUTATIVE",1.28
same,fold change,"protein TB427TMP.01.1540 HY[…], CONSERVED",0.99
same,fold change,"protein TB427TMP.01.5000 HY[…], CONSERVED",0.93
same,fold change,protein TB427TMP.01.8470 DIHYDROLIPOYL DEHYDROGENASE,0.71
same,fold change,"protein TB427TMP.01.8510 T-COMPLEX PROTEIN 1, ALPHA SUBUNIT, PUTATIVE",0.96
same,fold change,"protein TB427TMP.01.8570 DYNEIN LIGHT IN[…] D1BLIC, PUTATIVE",0.97
same,fold change,"protein TB427TMP.02.1070 AMINOPEPTIDASE, PUTATIVE",1.39
same,fold change,protein TB427TMP.02.5620 Tb427tmp.02.5620,0.92
same,fold change,protein TB427TMP.02.5720 RIBONUCLEOSIDE-DIPHOSPHATE REDUCTASE LARGE CHAIN,0.92
same,fold change,"protein TB427TMP.03.0150 HY[…], CONSERVED",1
same,fold change,"protein TB427TMP.160.2220 HY[…], CONSERVED",0.94
same,fold change,protein TB427TMP.160.4240 […] PROTEIN-LIKE PROTEIN,0.85
same,fold change,protein TB427TMP.160.4760 HY[…],0.89
same,fold change,protein TB427TMP.211.2730 GIM5A PROTEIN,0.95
same,fold change,"protein TB427TMP.211.4170 HY[…], CONSERVED",0.88
same,fold change,"protein TB427.03.1790 PYRUVATE DEHYDROGENASE E1 BETA SUBUNIT, PUTATIVE",0.68
same,fold change,"protein TB427.04.1080 V-TYPE ATPASE, A SUBUNIT, PUTATIVE",0.87
same,fold change,"protein TB427.05.4460 MAJOR VAULT PROTEIN, PUTATIVE",1.1
same,fold change,"protein TB427.06.1070 HY[…], CONSERVED",0.93
same,fold change,protein TB427.06.1500 ALKYL-DIHYDR[…] SYNTHASE,0.92
same,fold change,"protein TB427.06.2250 RAC SERINE-THREONINE KINASE, PUTATIVE",0.9
same,fold change,"protein TB427.06.3050 ALDEHYDE DEH[…], PUTATIVE",0.9
same,fold change,"protein TB427.06.3500 ENDOSOMAL T[…] RME-8, PUTATIVE",0.96
same,fold change,"protein TB427.06.3630 SPHINGOSINE 1-PHOSPHATE LYASE, PUTATIVE",0.96
same,fold change,"protein TB427.06.4770 HY[…], CONSERVED",0.98
same,fold change,"protein TB427.07.1770 HY[…], CONSERVED",1.41
same,fold change,"protein TB427.07.2560 HY[…], CONSERVED",0.95
same,fold change,"protein TB427.07.3370 HY[…], CONSERVED",0.9
same,fold change,"protein TB427.07.5750 HY[…], CONSERVED",1.28
same,fold change,"protein TB427.08.3530 GLYCEROL-3-PHOSPHATE DEH[…]+], GLYCOSOMAL",1
same,fold change,protein TB427.08.3660 PROTEIN TRANSPORT PROTEIN SEC23,0.86
same,fold change,"protein TB427.08.550 PEPTIDE […] REDUCTASE, PUTATIVE",0.77
same,fold change,"protein TB427.10.1170 INTR[…] PROTEIN IFT172, PUTATIVE",0.88
same,fold change,"protein TB427.10.13660 HY[…], CONSERVED",0.91
same,fold change,"protein TB427.10.14890 C-TERMINAL MOTOR KINESIN, PUTATIVE",0.92
same,fold change,"protein TB427.10.14950 RNA BINDING PROTEIN, PUTATIVE",0.87
same,fold change,protein TB427.10.1510 NOT1,0.97
same,fold change,protein TB427.10.7740 PROTEIN TRANSPORT PROTEIN SEC23,1
same,fold change,"protein TB427.10.8190 T-COMPLEX PROTEIN 1, THETA SUBUNIT, PUTATIVE",0.96
same,fold change,"protein TB927.10.12700 PYRUVATE DEHYDROGENASE E1 ALPHA SUBUNIT, PUTATIVE",0.79
same,fold change,"protein TB927.10.12940 HY[…], CONSERVED",1
same,fold change,protein TB927.10.2100 […] 1-ALPHA,0.89
same,fold change,"protein TB927.10.8160 HY[…], CONSERVED",0.76
same,fold change,protein TB927.2.2770 HY[…] TB927 2 2770,0.91
same,fold change,"protein TB927.2.4930 ESTERASE, PUTATIVE",0.92
same,fold change,"protein TB927.3.1370 RIBOSOMAL PROTEIN S25, PUTATIVE",1.38
same,fold change,protein TB927.3.3270 ATP-DEPENDENT PHOSPHOFRUCTOKINASE,0.91
same,fold change,"protein TB927.4.3820 HY[…], CONSERVED",0.96
same,fold change,"protein TB927.5.960 HY[…], CONSERVED",0.93
same,fold change,protein TB927.6.1020 CYSTEINE PEPTIDASE PRECURSOR,0.91
same,fold change,"protein TB927.6.3740 HEAT SHOCK 70 KDA PROTEIN, MIT[…], PUTATIVE",0.95
same,fold change,protein TB927.6.560 CYSTEINE PEPTIDASE C (CPC),0.89
same,fold change,protein TB927.7.2140 HY[…],0.87
same,fold change,"protein TB927.7.2750 PROTEIN KINASE, PUTATIVE",0.74
same,fold change,protein TB927.8.4610 SMALL GTP-BINDING PROTEIN RAB1,0.83

# From paper PMC6199744, “Development of Chemical Proteomics for the Folateome and Analysis of the Kinetoplastid Folateome” (ACS Infectious Diseases, 2018)
